Among the data in patent US20200010554A1 (TUSK THERAPEUTICS, published 2020) are binding values, retold here.

Results are given in words; binding and its absence hold for the method and conditions named. Some results given as binding are weak or reduced against the parent protein; the word gives no strength.

The target of assay [1] is human CD25 (soluble antigen of the Octet Red384 sandwich assays, 100 nM) (human) (UniProt P01589). In words: BLI Octet Red384 sandwich assay, MA251 on AHQ sensor, 100 nM human CD25, then 100 nM human IL-2 (FIG. 23).
The target in assay [2] is T1, recombinant human CD25 his tagged (human, UniProt P01589 22-213, limits assumed).
T1 construct: also called rhCD25 his tagged; rhCD25; not shown: his tag
T1 sequence: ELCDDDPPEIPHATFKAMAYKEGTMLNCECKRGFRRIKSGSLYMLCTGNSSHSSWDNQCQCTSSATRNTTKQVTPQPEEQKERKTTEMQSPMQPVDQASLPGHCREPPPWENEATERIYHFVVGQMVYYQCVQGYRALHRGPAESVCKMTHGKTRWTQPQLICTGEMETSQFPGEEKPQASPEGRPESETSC
The assay can be described thus: BLI, Octet Red96 sequential binding: rhCD25 his tagged on Ni-NTA sensor, first antibody 66.6 nM, then second antibody 66.6 nM.

Assay [3] addresses human CD25 expressed on cells (Karpas 299, SU-DHL-1, SR-786, in vitro differentiated Treg cells, PBMC) (human) (UniProt P01589). In words: flow cytometry titration on Karpas 299 cells (FIG. 21).
The target is the same in assay [4]. The assay can be described thus: flow cytometry on Karpas 299 cells, MFI AF647.
In assay [5] the target is human CD25 (soluble antigen of the Octet Red384 sandwich assays, 100 nM) (human) (UniProt P01589). The assay can be described thus: BLI, Octet Red384 sandwich assay: MA251 on AHQ sensor, 100 nM human CD25, then 100 nM human IL-2.
The target in assay [6] is T1, recombinant human CD25 his tagged. The assay can be described thus: BLI, Octet Red96 sequential binding: rhCD25 his tagged on Ni-NTA sensor, first antibody 66.6 nM, then second antibody 66.6 nM [D00027 FIGURE 24 cont. Q].
Assay [7] has as its target human CD25 expressed on cells (Karpas 299, SU-DHL-1, SR-786, in vitro differentiated Treg cells, PBMC) (human) (UniProt P01589). The assay can be described thus: flow cytometry titration on Karpas 299 cells, AF647 secondary antibody.
In assay [8] the target is T1, recombinant human CD25 his tagged. The assay can be described thus: BLI (Octet), sequential binding to immobilized rhCD25 his tagged, first antibody step.
Assay [9] has the same target. The assay can be described thus: BLI (Octet), sequential binding to immobilized rhCD25 his tagged, first antibody step [B].

B1: MA251, mouse anti-human CD25 antibody (antibody, V domains shown)
VH: QVQLKESGPGLVAPSQSLSITCTVSGFSLTSYGIQWVRQPPGKGLEWLGVIWAGGSTNYNSALMSRLSISKDNSKSQVFLKMNSLQTDDTAMYYCARAYGYDGSWLAYWGQGTLVTVSS
VL: QIVLSQSPAILSASPGEKVTMTCRASSSVSYMHWYQQKPGSSPKPWIFATSNLASGVPARFSGSGSGTSYSLTINRVEAEDADTYYCQQWSSNPPTFGGGTKLEIK
notes: Mouse isotype (compared with a mouse IgG1 isotype control)
Turning to B1, the binding entry in [1], in [2], in assay [3], in [4] and in [5] was “binds” throughout.

B2: 7G7B6, mouse IgG2a anti-human CD25 antibody (antibody, V domains shown)
VH: EVQLVESGGDLVQPRGSLKLSCAASGFTFSSYGMSWVRQTPDKRLELVATINGYGDTTYYPDSVKGRFTISRDNAKNTLYLQMSSLKSEDTAMYFCARDRDYGNSYYYALDYWGQGTSVTVSS
VL: QIVLSQSPAILSASPGERVTMTCRASSSVSFMHWLQQKPGSSPKPWIYATSNLASGVSARFSGSGSGTSYSLTITRVEAEDAATYYCQQWSSNPPAFGGGTKLEIK
notes: also called 7G76B; mouse anti-human CD25 clone 7G7B6
In the case of B2, the binding result in assay [6] is reported as “binds”.

B3: Antibody 5 (antibody, V domains shown)
VH: EVQLVESGGGLIQPGGSLRLSCAASGFTLDSYGVSWVRQAPGKGLEWVGVTSSGGSAYYADSVKGRFTISRDNSKNTLYLQMNSLRAEDTAVYYCARDRYVYTGGYLYHYGMDLWGQGTLVTVSS
VL: DIQMTQSPSSLSASVGDRVTITCRASQSISDYLAWYQQKPGKVPKLLIYAASTLPFGVPSRFSGSGSGTDFTLTISSLQPEDVATYYCQGTYDSSDWYWAFGGGTKVEI
notes: compared with a human IgG1 isotype control
As to B3, the binding entry in [7] and in [8] was “binds” in each case.

B4: Antibody 19 (antibody, V domains shown)
VH: QVQLVESGGGVVQPGGSLRLSCAVSGFSLTSYGIQWVRQAPGKGLEWVSVIWAGGSTNYNSALMSRFTISKDNSKSTLYLQMNSLRAEDTAVYYCARAYGYDGSWLAYWGQGTLVTVSS
VL: QIVLTQSPATLSLSPGERATLSCRASSSVSYMHWYQQKPGQAPRPLIFATSNLASGIPARFSGSGSGTDYTLTISSLEPEDFAVYYCQQWSSNPPTFGGGTKLEIK
notes: also called Ab19; Antibodyl9
As for B4, in assay [9], the binding result was “binds”.

B5: Antibody 7 (antibody, V domains shown)
VH: EVQLLESGGGLVQPGGSLRLSCAASGFTFSSYGMSWVRQAPGKGLELVSTINGYGDTTYYPDSVKGRFTISRDNSKNTLYLQMNSLRAEDTAVYYCARDRDYGNSYYYALDYWGQGTLVTVSS
VL: QIVLTQSPGTLSLSPGERATLSCRASSSVSFMHWLQQKPGQSPRPLIYATSNLASGIPDRFSGSGSGTDYTLTISRLEPEDFAVYYCQQWSSNPPAFGQGTKLEIK
notes: as for B3
Turning to B5, the binding entry in assay [9] is “binds”.
